The source of these data is PubChem BioAssay (NCATS).

Each structure is given as a SMILES string. Several values for one entry are separate records, joined by “and”; a condition that tells them apart may be missing. Equal entries are not always repeated. The list shows a part of the results. The main result of the screen is listed elsewhere. These columns were measured beside it and carry no call. The list favours compounds with an active or inconclusive main result.

One assay is described as follows: qHTS assay for small molecule agonists of retinoid X receptor alpha signaling (AID 588544). Particulars: HEK293T RXRa-UAS-bla, beta-lactamase reporter, 18 h; 530 nm emission. Background: qHTS replaces the single test concentration by a dilution series.
In the case of `CCCOc1nn(C(=O)NS(=O)(=O)c2ccccc2C(=O)OC)c(=O)n1C`, the max response was -11.3%.
In the case of `Cc1cccc(O)c1`, the max response is -9.62%.
`CC1CCCCC1NC(=O)Nc1ccccc1` (stereo not drawn): the max response came to 7.9%.
For `Cc1c(COC(=O)C2C(/C=C(\Cl)C(F)(F)F)C2(C)C)cccc1-c1ccccc1` (stereo not drawn), the max response is 39%.
Turning to `CCOP(=S)(OCC)Oc1cnc2ccccc2n1`, the max response was -0.423%.
As for `CCOP(=S)(OCC)Oc1nc(Cl)n(C(C)C)n1`, the max response is 7.92%.
In the case of `COC(=O)C(c1ccccc1)C1CCCCN1` (stereo not drawn), the max response stood at 6.11%.
Still for that read-out and setting: in the case of `COC(=O)c1ccccc1C(=O)OC` it was -12%; in that of `Cn1cc(-c2ccccc2)c(=O)c(-c2cccc(C(F)(F)F)c2)c1`, 13.7%; in that of `CC(C)C(C(=O)OC(C#N)c1cccc(Oc2ccccc2)c1)c1ccc(Cl)cc1` (stereo not drawn), 9.63%.
Same read-out and setting: the same measure for `O=S1OC[C@@H]2[C@H](CO1)[C@@]1(Cl)C(Cl)=C(Cl)[C@]2(Cl)C1(Cl)Cl` (stereo partly drawn): 3.34%; for `COC[C@H](C)N(C(=O)CCl)c1c(C)csc1C`: 12.5%.
Turning to `C=CC1(C)OC(=O)N(c2cc(Cl)cc(Cl)c2)C1=O` (stereo not drawn), the max response was found to be 2.73%.
As for `CN(C)c1ccc(Cc2ccc(N(C)C)cc2)cc1`, the max response is -2.44% and 1.76%.
In the case of `CCS(=O)(=O)c1cccnc1S(=O)(=O)NC(=O)Nc1nc(OC)cc(OC)n1`, the max response is -3.06%.
On to `CC(=O)[O-].CC(=O)[O-].O.O.[Cd+2]`, for which the max response came out at 48.4%.
Turning to `C#CCN1CC(=O)N(COC(=O)[C@@H]2[C@@H](C=C(C)C)C2(C)C)C1=O`, the max response was -20.9%.
Regarding `Nc1ccc(Cc2ccc(N)cc2)cc1`, the max response is 2.75%.
Turning to `CCOc1ccc(C(C)(C)COCc2cccc(Oc3ccccc3)c2)cc1`, the max response was -13.4%.
With `CC(O)CN(CC(C)O)CC(C)O` (stereo not drawn), the max response is -15.2%.
On the same count and under the same terms, in the case of `O=S(=O)(O)C(F)(F)C(F)(F)C(F)(F)C(F)(F)F` it was 18.3% and -20.2%.
Consider `CCCC(C)(COC(N)=O)COC(N)=O`, for which the max response is -18.3%.
Turning to `Nc1cc(Cl)ccc1O`, the max response came out at 14.5%.
Turning to `CSC(=O)c1c(C(F)F)nc(C(F)(F)F)c(C(=O)SC)c1CC(C)C`, the max response is -16.1%.
On to `CC1(C)[C@@H](C=C(Cl)Cl)[C@@H]1C(=O)OCc1cccc(Oc2ccccc2)c1`, for which the max response worked out at 2.62%.
`CCOP(=S)(OCC)SCSP(=S)(OCC)OCC`: the max response came to 25.3%.
For the molecule `CNc1cnn(-c2cccc(C(F)(F)F)c2)c(=O)c1Cl`, the max response stood at 6.95%.
As for `CC[C@H](C)[C@H]1O[C@]2(C=C[C@@H]1C)C[C@@H]1C[C@@H](C/C=C(\C)[C@@H](O[C@H]3C[C@H](OC)[C@@H](O[C@H]4C[C@H](OC)[C@@H](NC)[C@H](C)O4)[C@H](C)O3)[C@@H](C)/C=C/C=C3\CO[C@@H]4[C@H](O)C(C)=C[C@@H](C(=O)O1)[C@]34O)O2`, the max response was -55.1%.
As for `COC1=CC(=O)O[C@@H](/C=C/c2ccc3c(c2)OCO3)C1`, the max response came out at 36.8%.
Regarding `S=C([S-])NCCNC(=S)[S-].S=C([S-])NCCNC(=S)[S-].[Mn+2].[Zn+2]`, the max response was -1.63%.
As to `CCCCSP(=O)(SCCCC)SCCCC`, the max response turned out to be 20%.
As to `C[C@H]1[C@H](c2ccc(Cl)cc2)SC(=O)N1C(=O)NC1CCCCC1`, the max response came out at 27.5%.
`COC(=O)c1ccccc1S(=O)(=O)NC(=O)Nc1nc(C)nc(OC)n1`: the max response was 5.75%.
On to `COc1ccccc1[N+](=O)[O-]`, for which the max response was -6.79%.
Take `CCOc1ccc(NC(=O)OC(C)C)cc1OCC`: the max response stood at 2.05%.
Regarding `CNC(=O)Oc1cc(C)c(SC)c(C)c1`, the max response is -34.7%.
In the case of `CCCCC(O)(Cn1cncn1)c1ccc(Cl)cc1Cl` (stereo not drawn), the max response was 20.4%.
On the same count and under the same terms, the same measure for `O=C(Oc1ccccc1)c1ccccc1O`: -8.98%; for `COCc1cnc(C2=NC(C)(C(C)C)C(=O)N2)c(C(=O)O)c1` (stereo not drawn): -12.4%.

A further assay in a line: qHTS assay for small molecule antagonists of retinoid X receptor alpha signaling (AID 588546).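 Further: cells stimulated with 9-cis-retinoic acid as agonist; on the % scale 0 is the no-effect control and ±100 the full control effect.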 To be noted: HEK293T RXRa-UAS-bla, beta-lactamase ratio, antagonist mode; measured here: W530 green channel, cytotoxicity proxy. An outline of the steps:
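Beta-lactamase reporter inhibition, read as CCF4 fluorescence ratio (ex 405, em 460/530 nm) after 2 h at RT. HEK293T UAS-bla cells, 2500/well, were stimulated with 9-cis-RA at 500 or 100 nM final alongside test compound for 18 h at 37 C.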
Consider `COC(=O)c1ccccc1C(=O)OC`, for which the max response is -7.84%.
Regarding `CC(C)C(C(=O)OC(C#N)c1cccc(Oc2ccccc2)c1)c1ccc(Cl)cc1` (stereo not drawn), the max response was -11.5%.
For the molecule `CC(=O)[O-].CC(=O)[O-].O.O.[Cd+2]`, the max response came out at 14.3%.
`O=S(=O)(O)C(F)(F)C(F)(F)C(F)(F)C(F)(F)F`: the max response is -5.42% and -3.46%.
The same measure, in the same setting: in the case of `CC[C@H](C)[C@H]1O[C@]2(C=C[C@@H]1C)C[C@@H]1C[C@@H](C/C=C(\C)[C@@H](O[C@H]3C[C@H](OC)[C@@H](O[C@H]4C[C@H](OC)[C@@H](NC)[C@H](C)O4)[C@H](C)O3)[C@@H](C)/C=C/C=C3\CO[C@@H]4[C@H](O)C(C)=C[C@@H](C(=O)O1)[C@]34O)O2` it was -39.3%; in that of `S=C([S-])NCCNC(=S)[S-].S=C([S-])NCCNC(=S)[S-].[Mn+2].[Zn+2]`, 14.5%.
As for `CCCCSP(=O)(SCCCC)SCCCC`, the max response was found to be 15.1%.
`C[C@H]1[C@H](c2ccc(Cl)cc2)SC(=O)N1C(=O)NC1CCCCC1`: the max response came to 1.32%.
On the same count and under the same terms, in the case of `CNC(=O)Oc1cc(C)c(SC)c(C)c1` it was -16.5%.
